# Primary screen of a compound library

Chains of the proteins cited; added tags and fusions are not shown. Residues count along the entry.
UniProt A4I591, 1-473: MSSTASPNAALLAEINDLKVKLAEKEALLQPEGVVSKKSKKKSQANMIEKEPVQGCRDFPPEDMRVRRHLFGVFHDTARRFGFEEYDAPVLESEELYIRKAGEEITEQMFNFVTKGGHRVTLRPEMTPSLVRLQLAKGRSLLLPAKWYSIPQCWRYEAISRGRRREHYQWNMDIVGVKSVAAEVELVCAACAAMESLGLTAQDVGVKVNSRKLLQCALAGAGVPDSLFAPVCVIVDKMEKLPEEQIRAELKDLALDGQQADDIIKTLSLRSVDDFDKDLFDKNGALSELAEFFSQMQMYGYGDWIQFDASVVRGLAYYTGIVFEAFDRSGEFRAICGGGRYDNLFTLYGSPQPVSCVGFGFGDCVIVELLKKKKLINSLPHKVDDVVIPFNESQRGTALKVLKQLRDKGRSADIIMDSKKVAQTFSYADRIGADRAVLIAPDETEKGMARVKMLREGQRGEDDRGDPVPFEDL
UniProt P9WPC5, whole entry: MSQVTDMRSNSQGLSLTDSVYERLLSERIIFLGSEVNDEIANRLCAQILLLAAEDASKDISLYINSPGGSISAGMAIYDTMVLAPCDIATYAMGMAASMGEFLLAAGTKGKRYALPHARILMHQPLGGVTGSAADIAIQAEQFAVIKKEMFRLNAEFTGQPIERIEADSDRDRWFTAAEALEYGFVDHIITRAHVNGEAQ
UniProt P9WPC3, whole entry partner: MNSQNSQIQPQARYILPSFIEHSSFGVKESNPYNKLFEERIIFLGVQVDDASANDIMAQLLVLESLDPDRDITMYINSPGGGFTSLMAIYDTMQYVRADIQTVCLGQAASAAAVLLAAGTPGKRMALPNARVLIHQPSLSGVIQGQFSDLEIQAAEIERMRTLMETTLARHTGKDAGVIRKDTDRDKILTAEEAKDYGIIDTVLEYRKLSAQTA
UniProt Q4DA54, 1-478: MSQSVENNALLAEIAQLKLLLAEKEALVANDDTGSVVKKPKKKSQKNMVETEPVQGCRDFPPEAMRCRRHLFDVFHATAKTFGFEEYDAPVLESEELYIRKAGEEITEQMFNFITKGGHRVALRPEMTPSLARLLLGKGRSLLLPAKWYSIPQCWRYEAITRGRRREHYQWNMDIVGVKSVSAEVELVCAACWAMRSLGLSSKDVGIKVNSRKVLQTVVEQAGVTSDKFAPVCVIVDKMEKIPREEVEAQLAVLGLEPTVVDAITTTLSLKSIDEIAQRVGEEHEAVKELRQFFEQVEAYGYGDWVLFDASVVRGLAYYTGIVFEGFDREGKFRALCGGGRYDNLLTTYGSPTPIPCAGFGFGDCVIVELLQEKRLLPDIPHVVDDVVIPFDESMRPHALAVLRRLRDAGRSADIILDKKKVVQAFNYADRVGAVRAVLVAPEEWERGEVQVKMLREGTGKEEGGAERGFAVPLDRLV

Source: ChEMBL document CHEMBL3988442, “University of Dundee, Small-Polar-MMV Screening Library” (2021).

Toxoplasma: 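Assay of Toxoplasma gondii numbers, read through their beta-galactosidase reporter with a colour substrate. Tested at 10 µM. The record gives no direction; the compounds picked for IC50 retests had high values, so higher reads as fewer parasites. About 67,000 compounds were tested under these conditions; 0.38% (about 260) showed 50% or more at least once.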
T. brucei: 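Whole-parasite assay of Trypanosoma brucei over 72 hours; the read-out is not stated. Compounds at 30 µM. Higher reads as stronger inhibition (inferred: compounds with an IC50 in retests scored well above the rest). Values scatter widely below zero; nearly all retest evidence comes from the higher of the two concentrations used. Size under these conditions: about 64,000 compounds, about 940 of them at 50% or above in at least one test.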
LiHisRS: 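Enzyme assay of histidyl-tRNA synthetase; the read-out is not stated. Target: Histidine-tRNA ligase, Leishmania infantum (UniProt A4I591). Compounds at 30 µM. Higher reads as stronger inhibition (inferred: compounds with an IC50 in retests scored well above the rest). The assay is labelled LdHisRS but filed under L. infantum. Size under these conditions: about 69,000 compounds, about 410 of them at 50% or above in at least one test.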
ClpP1P2: 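Protease assay of ClpP1P2, read by the AMC dye that it sets free. Target: ClpP1P2, Mycobacterium tuberculosis (UniProt P9WPC5 and UniProt P9WPC3). Concentration: 50 µM. Higher reads as stronger inhibition, judged from the few compounds that gave an IC50. Most other retested compounds had strongly negative values. About 69,000 compounds were tested under these conditions; 0.015% (about 10) showed 50% or more at least once.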
TcHisRS: 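Histidine-tRNA ligase, Trypanosoma cruzi CL Brener (UniProt Q4DA54). Enzyme assay of histidyl-tRNA synthetase; the read-out is not stated. Compounds at 30 µM. Higher reads as stronger inhibition (inferred: compounds with an IC50 in retests scored well above the rest). About 69,000 compounds were tested under these conditions; 0.045% (about 31) showed 50% or more at least once.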

Values are the deposited “Percent Effect”, in %. How 0% and 100% were set is not recorded. Most values in the screen are low, and negative values occur. The compounds are a random part of those screened.

{"smiles": "O=C(N[C@@H]1CN(Cc2cccs2)[C@@H]2CCCO[C@@H]21)C1CC1", "LiHisRS": 5.66, "ClpP1P2": 1.314, "TcHisRS": 3.784}
{"smiles": "CCCc1nc(C(=O)N(C)Cc2cc(CC)no2)cs1", "Toxoplasma": -1.373, "T. brucei": -7.353, "LiHisRS": 15.71, "ClpP1P2": -5.165, "TcHisRS": 7.447}
{"smiles": "c1cncc(CNc2ncnc3c2CCN(Cc2ccsc2)CC3)c1", "T. brucei": -14.42, "LiHisRS": 20.97, "ClpP1P2": -22.64, "TcHisRS": 5.747}
{"smiles": "Cc1cc(S(C)(=O)=O)c(C)c(S(=O)(=O)NCC2CCC2)c1", "Toxoplasma": -1.517, "T. brucei": -26.95, "LiHisRS": 31.51, "ClpP1P2": -3.101, "TcHisRS": 4.926}
{"smiles": "CC(C)(C)c1ccn(C2(C(=O)O)CCN(c3ccnc(N)n3)CC2)n1", "Toxoplasma": -3.936, "T. brucei": -8.988, "LiHisRS": 18.52, "ClpP1P2": -27.58, "TcHisRS": 1.339}
{"smiles": "CCn1cc(NC(=O)NCC(O)COc2cccc(F)c2)cn1", "stereo": "stereo unspecified", "Toxoplasma": -12.28, "T. brucei": -7.95, "LiHisRS": 24.8, "ClpP1P2": 8.729, "TcHisRS": 3.422}
{"smiles": "Cc1cc(C)n(-c2ccc(C(=O)N3CCCC3c3cnn(C)c3)cc2)n1", "stereo": "stereo unspecified", "Toxoplasma": 0.7638, "T. brucei": 5.789, "LiHisRS": 11.76, "ClpP1P2": -9.354, "TcHisRS": 2.646}
{"smiles": "Cc1ncsc1CN1C[C@@H]2COC[C@]2(C(=O)NC2CC(F)(F)C2)C1", "LiHisRS": 20, "ClpP1P2": -3.5, "TcHisRS": 1.031}
{"smiles": "CCOC(=O)N1CCc2ccccc2C12CCNCC2", "LiHisRS": 43.4, "ClpP1P2": 5.924, "TcHisRS": 23.33}
{"smiles": "CC(=O)N1CCC(c2nc3ccc(C)cn3n2)CC1", "Toxoplasma": -5.96, "T. brucei": -16.01, "LiHisRS": 7.692, "ClpP1P2": 1.887, "TcHisRS": 2.793}
{"smiles": "CN(Cc1cc[nH]n1)C(=O)c1cn(Cc2ccccc2Cl)nn1", "Toxoplasma": -4.992, "T. brucei": 0.06203, "LiHisRS": 9.89, "ClpP1P2": -0.1193, "TcHisRS": 5.155}
{"smiles": "Cc1cccc2c(CCNS(=O)(=O)C3CCOC3)c[nH]c12", "stereo": "stereo unspecified", "Toxoplasma": -6.723, "T. brucei": -17.83, "LiHisRS": 22.81, "ClpP1P2": 12.03, "TcHisRS": -7.563}
{"smiles": "CCc1nc(C)c(C2CC(=O)Nc3c2c(C(C)(C)C)nn3C)[nH]1", "stereo": "stereo unspecified", "Toxoplasma": -9.679, "T. brucei": -27.71, "LiHisRS": 10.26, "ClpP1P2": 8.684, "TcHisRS": 3.784}
{"smiles": "COc1ccc(CCNC(=O)C2CCCOC2)c(Cl)c1", "stereo": "stereo unspecified", "Toxoplasma": 19.03, "T. brucei": -21.18, "LiHisRS": 4.839, "ClpP1P2": -20.89, "TcHisRS": -1.02}
{"smiles": "CC(C)CNc1nccc(-c2cnc3sc(Cl)cn3c2=O)n1", "Toxoplasma": 2.298, "T. brucei": 13.72, "LiHisRS": 20, "ClpP1P2": -6.491, "TcHisRS": 10.17}
{"smiles": "O=C(O)C(F)(F)F.[H][C@]12C[C@@H](C(=O)NCc3cccs3)CO[C@@]1([H])CCN(C1CCCC1)C2", "Toxoplasma": -36.7, "T. brucei": -53.03}
{"smiles": "Cc1c(C(=O)N2C[C@@H](CN(C)CCO)[C@@H](CO)C2)sc2ccccc12", "Toxoplasma": 3.698, "T. brucei": -7.133, "LiHisRS": 1.613, "ClpP1P2": -1.627, "TcHisRS": 6.14}
{"smiles": "Cc1cc(NC(=O)CN2C(=O)CC(C)(C)c3ccccc32)no1", "Toxoplasma": -15.22, "T. brucei": 5.237, "LiHisRS": 23.08, "ClpP1P2": 1.912, "TcHisRS": 8.911}
{"smiles": "CCN(Cc1csc(CS(C)(=O)=O)n1)c1cccc(CO)c1", "Toxoplasma": -2.358, "T. brucei": -3.676, "LiHisRS": -4, "ClpP1P2": 1.116, "TcHisRS": 4.046}

The first 2 entries again:

{"smiles": "O=C(N[C@@H]1CN(Cc2cccs2)[C@@H]2CCCO[C@@H]21)C1CC1", "LiHisRS": 5.66, "ClpP1P2": 1.314, "TcHisRS": 3.784}
{"smiles": "CCCc1nc(C(=O)N(C)Cc2cc(CC)no2)cs1", "Toxoplasma": -1.373, "T. brucei": -7.353, "LiHisRS": 15.71, "ClpP1P2": -5.165, "TcHisRS": 7.447}